Source: PubChem BioAssay AID1259254 (NCATS, 2017)
Purpose: 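Genome-wide screen for genes that prevent DNA re-replication in cancer cells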 (primary screen). Cells: human HCT116 colorectal cancer cells. Reagents: single siRNA against human genes. Time to read-out: 3 days. Measured: 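Nuclei stained with Hoechst and imaged; cell-cycle phase assigned by DNA content; G2 share scaled per plate, non-targeting siRNA 0%, GMNN siRNA 100%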. Scale: G2 robust z-score: higher = more G2 cells, more excess DNA replication. Call rule: 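Active siRNAs have a G2 robust z of 5 or more median absolute deviations over the median, which in these data means about 38% or higher of GMNN control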.
The whole screen tested about 59,000 reagents; shown is an unselected part. Over the whole deposit, about 1,550 (2.6%) got an active call. 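G2 share is only a proxy for re-replication; each gene was hit by three separate siRNAs, and active genes were retested.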 Reagents against one gene are numbered here. Further read-outs or replicates are left out here. Not stated in the record: the amount of reagent.

{"gene": "R3HCC1L (R3H domain and coiled-coil containing 1 like)", "reagent no.": 1, "G2 robust z-score": -0.527, "Call": "inactive"}
{"gene": "R3HCC1L (R3H domain and coiled-coil containing 1 like)", "reagent no.": 2, "G2 robust z-score": 0.0233, "Call": "inactive"}
{"gene": "R3HCC1L (R3H domain and coiled-coil containing 1 like)", "reagent no.": 3, "G2 robust z-score": -0.704, "Call": "inactive"}
{"gene": "PLEKHG2 (pleckstrin homology and RhoGEF domain containing G2)", "reagent no.": 1, "G2 robust z-score": -0.22, "Call": "inactive"}
{"gene": "PLEKHG2 (pleckstrin homology and RhoGEF domain containing G2)", "reagent no.": 2, "G2 robust z-score": -0.902, "Call": "inactive"}
{"gene": "PLEKHG2 (pleckstrin homology and RhoGEF domain containing G2)", "reagent no.": 3, "G2 robust z-score": 1.68, "Call": "inactive"}

Next part, starting with the last 2 of the part before.
{"gene": "PLEKHG2 (pleckstrin homology and RhoGEF domain containing G2)", "reagent no.": 2, "G2 robust z-score": -0.902, "Call": "inactive"}
{"gene": "PLEKHG2 (pleckstrin homology and RhoGEF domain containing G2)", "reagent no.": 3, "G2 robust z-score": 1.68, "Call": "inactive"}
{"gene": "ANKFY1 (ankyrin repeat and FYVE domain containing 1)", "reagent no.": 1, "G2 robust z-score": -0.453, "Call": "inactive"}
{"gene": "ANKFY1 (ankyrin repeat and FYVE domain containing 1)", "reagent no.": 2, "G2 robust z-score": 0.0709, "Call": "inactive"}
{"gene": "ANKFY1 (ankyrin repeat and FYVE domain containing 1)", "reagent no.": 3, "G2 robust z-score": 0.368, "Call": "inactive"}
{"gene": "HSD17B14 (hydroxysteroid 17-beta dehydrogenase 14)", "reagent no.": 1, "G2 robust z-score": 0.149, "Call": "inactive"}
{"gene": "HSD17B14 (hydroxysteroid 17-beta dehydrogenase 14)", "reagent no.": 2, "G2 robust z-score": 6.25, "Call": "active"}
{"gene": "HSD17B14 (hydroxysteroid 17-beta dehydrogenase 14)", "reagent no.": 3, "G2 robust z-score": 1.65, "Call": "inactive"}
